No constants are given. Whether binding was seen depends on the method and setting. Binding seen in cells or lysates may run through a third protein. These calls come from enrichment with a bait or labelling near it, and not all partners need be listed.

The chains behind the UniProt entries cited, without tags or fusion partners. Where a name states a change or a piece, a line headed by the entry shows the natural chain unless it says otherwise. A line that says so, or that is headed by a name, gives the form on record, which may keep a tag or linker.
UniProt Q9QR71: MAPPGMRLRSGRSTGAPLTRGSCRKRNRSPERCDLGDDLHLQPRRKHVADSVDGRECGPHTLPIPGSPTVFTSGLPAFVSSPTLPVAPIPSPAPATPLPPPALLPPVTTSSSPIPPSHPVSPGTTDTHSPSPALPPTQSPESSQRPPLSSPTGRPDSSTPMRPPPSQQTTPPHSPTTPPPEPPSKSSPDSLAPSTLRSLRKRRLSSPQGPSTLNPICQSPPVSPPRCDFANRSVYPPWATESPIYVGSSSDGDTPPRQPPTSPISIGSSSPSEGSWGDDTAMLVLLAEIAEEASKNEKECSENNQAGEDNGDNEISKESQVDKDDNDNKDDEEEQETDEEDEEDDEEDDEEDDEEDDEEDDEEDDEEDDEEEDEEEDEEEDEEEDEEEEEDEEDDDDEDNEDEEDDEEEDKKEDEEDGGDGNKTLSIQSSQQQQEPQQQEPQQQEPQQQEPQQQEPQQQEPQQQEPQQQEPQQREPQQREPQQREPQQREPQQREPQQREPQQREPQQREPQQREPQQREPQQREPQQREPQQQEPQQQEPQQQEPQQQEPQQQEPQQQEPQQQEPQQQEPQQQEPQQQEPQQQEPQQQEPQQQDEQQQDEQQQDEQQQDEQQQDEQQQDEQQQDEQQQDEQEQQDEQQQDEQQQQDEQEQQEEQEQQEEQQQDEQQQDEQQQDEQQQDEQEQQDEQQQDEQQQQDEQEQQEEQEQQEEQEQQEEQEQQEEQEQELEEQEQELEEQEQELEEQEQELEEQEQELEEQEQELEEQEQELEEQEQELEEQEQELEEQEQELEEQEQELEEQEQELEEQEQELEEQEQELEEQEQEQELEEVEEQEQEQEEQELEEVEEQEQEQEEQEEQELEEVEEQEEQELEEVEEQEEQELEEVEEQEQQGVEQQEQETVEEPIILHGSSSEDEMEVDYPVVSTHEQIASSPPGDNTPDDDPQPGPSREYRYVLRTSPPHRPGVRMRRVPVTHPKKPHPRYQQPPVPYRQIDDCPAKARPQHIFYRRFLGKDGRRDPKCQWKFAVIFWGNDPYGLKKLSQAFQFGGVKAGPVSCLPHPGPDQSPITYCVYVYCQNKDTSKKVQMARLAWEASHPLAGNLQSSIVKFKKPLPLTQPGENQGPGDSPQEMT
UniProt P67809: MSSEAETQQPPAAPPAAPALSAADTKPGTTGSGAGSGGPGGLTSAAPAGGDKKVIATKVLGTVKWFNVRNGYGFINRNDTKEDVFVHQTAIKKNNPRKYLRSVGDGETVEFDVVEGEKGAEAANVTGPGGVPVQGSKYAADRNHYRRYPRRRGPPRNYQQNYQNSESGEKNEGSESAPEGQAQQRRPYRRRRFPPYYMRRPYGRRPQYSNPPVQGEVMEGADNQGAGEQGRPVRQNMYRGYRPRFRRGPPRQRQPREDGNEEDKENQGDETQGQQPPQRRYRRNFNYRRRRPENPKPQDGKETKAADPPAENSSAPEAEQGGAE
Heterogeneous nuclear ribonucleoprotein U isoform B (Q00839-2, form named): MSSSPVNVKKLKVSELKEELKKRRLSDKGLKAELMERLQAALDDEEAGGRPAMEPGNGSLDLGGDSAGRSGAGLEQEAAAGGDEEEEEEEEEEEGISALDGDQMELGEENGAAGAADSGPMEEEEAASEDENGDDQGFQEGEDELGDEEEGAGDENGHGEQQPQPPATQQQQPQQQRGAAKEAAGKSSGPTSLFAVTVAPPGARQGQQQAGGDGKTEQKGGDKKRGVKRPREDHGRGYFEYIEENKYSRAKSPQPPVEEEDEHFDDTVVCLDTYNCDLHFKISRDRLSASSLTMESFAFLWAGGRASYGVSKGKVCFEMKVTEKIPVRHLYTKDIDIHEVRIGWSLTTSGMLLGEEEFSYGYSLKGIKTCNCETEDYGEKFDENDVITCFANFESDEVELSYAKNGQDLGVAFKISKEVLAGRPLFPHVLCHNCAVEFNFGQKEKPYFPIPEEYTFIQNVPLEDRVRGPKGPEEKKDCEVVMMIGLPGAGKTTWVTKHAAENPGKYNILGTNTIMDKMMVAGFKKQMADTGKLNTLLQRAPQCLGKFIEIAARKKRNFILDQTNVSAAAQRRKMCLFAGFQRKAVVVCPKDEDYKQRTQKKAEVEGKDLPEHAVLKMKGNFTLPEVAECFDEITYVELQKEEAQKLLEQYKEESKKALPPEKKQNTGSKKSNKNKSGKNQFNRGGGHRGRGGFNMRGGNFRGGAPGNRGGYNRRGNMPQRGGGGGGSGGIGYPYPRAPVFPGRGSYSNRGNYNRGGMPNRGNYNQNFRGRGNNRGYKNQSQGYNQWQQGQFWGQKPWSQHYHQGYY
UniProt P06733: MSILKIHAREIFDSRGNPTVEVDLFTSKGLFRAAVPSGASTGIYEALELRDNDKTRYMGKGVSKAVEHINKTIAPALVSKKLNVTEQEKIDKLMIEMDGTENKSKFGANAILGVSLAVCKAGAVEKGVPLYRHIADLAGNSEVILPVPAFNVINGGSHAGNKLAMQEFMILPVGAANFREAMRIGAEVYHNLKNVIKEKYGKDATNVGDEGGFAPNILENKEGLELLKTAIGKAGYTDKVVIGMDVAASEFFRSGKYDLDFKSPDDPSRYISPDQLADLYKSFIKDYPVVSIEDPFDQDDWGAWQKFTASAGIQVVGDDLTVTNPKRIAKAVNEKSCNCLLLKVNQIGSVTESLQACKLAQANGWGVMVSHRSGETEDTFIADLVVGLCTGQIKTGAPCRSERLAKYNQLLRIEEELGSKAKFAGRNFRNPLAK
UniProt P11940: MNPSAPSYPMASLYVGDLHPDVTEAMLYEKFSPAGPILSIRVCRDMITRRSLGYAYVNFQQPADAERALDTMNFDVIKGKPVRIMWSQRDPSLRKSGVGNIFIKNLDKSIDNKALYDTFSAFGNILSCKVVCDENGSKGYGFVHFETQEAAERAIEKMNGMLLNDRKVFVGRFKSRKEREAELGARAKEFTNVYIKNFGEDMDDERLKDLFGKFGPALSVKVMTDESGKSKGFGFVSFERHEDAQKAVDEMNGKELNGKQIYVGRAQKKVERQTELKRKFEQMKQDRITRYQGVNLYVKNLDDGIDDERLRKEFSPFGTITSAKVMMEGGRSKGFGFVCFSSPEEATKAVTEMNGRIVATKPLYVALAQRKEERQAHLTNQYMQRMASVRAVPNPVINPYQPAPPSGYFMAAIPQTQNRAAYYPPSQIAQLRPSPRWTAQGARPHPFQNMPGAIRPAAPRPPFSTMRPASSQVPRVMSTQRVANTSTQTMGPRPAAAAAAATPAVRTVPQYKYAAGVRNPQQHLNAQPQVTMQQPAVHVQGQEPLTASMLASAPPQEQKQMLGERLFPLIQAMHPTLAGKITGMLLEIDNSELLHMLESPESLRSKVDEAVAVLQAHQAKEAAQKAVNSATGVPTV
UniProt P15311: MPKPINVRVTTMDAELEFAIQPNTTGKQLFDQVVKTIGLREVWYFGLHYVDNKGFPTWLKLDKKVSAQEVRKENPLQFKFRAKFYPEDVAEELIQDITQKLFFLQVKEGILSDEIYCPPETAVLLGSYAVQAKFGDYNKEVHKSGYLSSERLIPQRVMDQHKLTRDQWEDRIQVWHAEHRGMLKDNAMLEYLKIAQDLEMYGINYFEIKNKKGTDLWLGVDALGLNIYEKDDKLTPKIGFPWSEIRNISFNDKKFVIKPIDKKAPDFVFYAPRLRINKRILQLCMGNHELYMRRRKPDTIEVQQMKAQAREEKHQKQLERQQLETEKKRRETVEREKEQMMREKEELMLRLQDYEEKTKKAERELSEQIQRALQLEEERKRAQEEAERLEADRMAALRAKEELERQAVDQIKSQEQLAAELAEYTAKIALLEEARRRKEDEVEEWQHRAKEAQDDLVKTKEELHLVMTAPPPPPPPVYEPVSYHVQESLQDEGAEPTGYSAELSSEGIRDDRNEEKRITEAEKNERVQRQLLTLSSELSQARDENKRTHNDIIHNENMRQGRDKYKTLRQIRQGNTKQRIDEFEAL
UniProt P60953: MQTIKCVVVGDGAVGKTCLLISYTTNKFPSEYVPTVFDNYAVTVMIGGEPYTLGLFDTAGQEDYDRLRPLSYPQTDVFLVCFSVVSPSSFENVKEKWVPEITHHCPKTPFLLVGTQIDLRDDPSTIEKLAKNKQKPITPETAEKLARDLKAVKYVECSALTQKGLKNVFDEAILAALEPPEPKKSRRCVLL

The labels stand for the following.
B1: T-complex protein 1 subunit beta isoform 1 (protein, UniProt P78371 1-535)
chain: MASLSLAPVNIFKAGADEERAETARLTSFIGAIAIGDLVKSTLGPKGMDKILLSSGRDASLMVTNDGATILKNIGVDNPAAKVLVDMSRVQDDEVGDGTTSVTVLAAELLREAESLIAKKIHPQTIIAGWREATKAAREALLSSAVDHGSDEVKFRQDLMNIAGTTLSSKLLTHHKDHFTKLAVEAVLRLKGSGNLEAIHIIKKLGGSLADSYLDEGFLLDKKIGVNQPKRIENAKILIANTGMDTDKIKIFGSRVRVDSTAKVAEIEHAEKEKMKEKVERILKHGINCFINRQLIYNYPEQLFGAAGVMAIEHADFAGVERLALVTGGEIASTFDHPELVKLGSCKLIEEVMIGEDKLIHFSGVALGEACTIVLRGATQQILDEAERSLHDALCVLAQTVKDSRTVYGGGCSEMLMAHAVTQLANRTPGKEAVAMESYAKALRMLPTIIADNAGYDSADLVAQLRAAHSEGNTTAGLDMREGTIGDMAILGITESFQVKRQVLLSAAEAAEVILRVDNIIKAAPRKRVPDHHPC
B2: Transketolase isoform 1 (protein, UniProt P29401 1-623)
chain: MESYHKPDQQKLQALKDTANRLRISSIQATTAAGSGHPTSCCSAAEIMAVLFFHTMRYKSQDPRNPHNDRFVLSKGHAAPILYAVWAEAGFLAEAELLNLRKISSDLDGHPVPKQAFTDVATGSLGQGLGAACGMAYTGKYFDKASYRVYCLLGDGELSEGSVWEAMAFASIYKLDNLVAILDINRLGQSDPAPLQHQMDIYQKRCEAFGWHAIIVDGHSVEELCKAFGQAKHQPTAIIAKTFKGRGITGVEDKESWHGKPLPKNMAEQIIQEIYSQIQSKKKILATPPQEDAPSVDIANIRMPSLPSYKVGDKIATRKAYGQALAKLGHASDRIIALDGDTKNSTFSEIFKKEHPDRFIECYIAEQNMVSIAVGCATRNRTVPFCSTFAAFFTRAFDQIRMAAISESNINLCGSHCGVSIGEDGPSQMALEDLAMFRSVPTSTVFYPSDGVATEKAVELAANTKGICFIRTSRPENAIIYNNNEDFQVGQAKVVLKSKDDQVTVIGAGVTLHEALAAAELLKKEKINIRVLDPFTIKPLDRKLILDSARATKGRILTVEDHYYEGGIGEAVSSAVVGEPGITVTHLAVNRVPRSGKPAELLKMFGIDRDAIAQAVRGLITKA
B3: Serpin H1 precursor (protein, UniProt P50454 19-418)
chain: AEVKKPAAAAAPGTAEKLSPKAATLAERSAGLAFSLYQAMAKDQAVENILVSPVVVASSLGLVSLGGKATTASQAKAVLSAEQLRDEEVHAGLGELLRSLSNSTARNVTWKLGSRLYGPSSVSFADDFVRSSKQHYNCEHSKINFRDKRSALQSINEWAAQTTDGKLPEVTKDVERTDGALLVNAMFFKPHWDEKFHHKMVDNRGFMVTRSYTVGVMMMHRTGLYNYYDDEKEKLQIVEMPLAHKLSSLIILMPHHVEPLERLEKLLTKEQLKIWMGKMQKKAVAISLPKGVVEVTHDLQKHLAGLGLTEAIDKNKADLSRMSGKKDLYLASVFHATAFELDTDGNPFDQDIYGREELRSPKLFYADHPFIFLVRDTQSGSLLFIGRLVRPKGDKMRDEL

For this experiment, the target named is YFP-LANA^WT-Flag (wild-type latency-associated nuclear antigen) (Kaposi's sarcoma-associated herpesvirus (KSHV)) (UniProt Q9QR71). The experiment can be described thus: affinity purification with mass spectrometry.
As to “Nuclease-sensitive element-binding protein 1 (from UniProt P67809 1-324)”, the binding result is recorded as “binds”.
In the case of “Heterogeneous nuclear ribonucleoprotein U isoform B (from UniProt Q00839-2 1-806)”, the binding result is listed as “binds”.
Regarding “Alpha-enolase isoform 1 (from UniProt P06733 1-434)”, the binding result is recorded as “binds”.
Consider “Polyadenylate-binding protein 1 (from UniProt P11940 1-636)”, for which the binding entry was “binds”.
Take Ezrin (from UniProt P15311 1-586): the binding result is given as “binds”.
Consider “Cell division control protein 42 homolog isoform 1 precursor (from UniProt P60953 1-191)”, for which the binding result was “binds”.
Turning to B1, the binding entry is given as “binds”.
As for B2, the entry is “binds”; as for B3, “binds”.

The record behind these values is publication PMC8562486.
